Data on two substances can be found in patent publication US12037417B2 (Kagoshima University, priority 2016, dated 2024).

Data set [1] in a line: general procedure: Fmoc solid-phase peptide synthesis; Rink-amide-Chemmatrix resin (Biotage Japan, Ltd.). The note with it: late stage modification step.
Data set [2] is described as follows: general procedure: Fmoc solid-phase peptide synthesis; Rink-amide-Chemmatrix resin. The note with it: cyclisation step.

Substance “N-terminally acetylated RRC-PEG4-added synthetic peptide GPDCAYHXGELVWCTFH (X = lysine, C-terminally amidated), cyclized via dichloropropanone” showed a step yield in data set [1] of 67%.
Take “N-terminally acetylated RRC (Acm-protected)-PEG4-added synthetic peptide GPDCAYHXGELVWCTFH (X = lysine, C-terminally amidated), cyclized via dichloropropanone”: in data set [2], the cyclisation yield came out at 50%.
